Experimental data as given in paper PMC7132798.
No constants are given. Whether binding was seen depends on the method and setting. In cells and extracts the contact can be indirect. Some results given as binding are weak or reduced against the parent protein; the word gives no strength. Tags and fused reporters may be left off the sequences shown.

Protein sequences, listed by entry. Tags and fused reporters are not part of them.
UniProt Q6PB44: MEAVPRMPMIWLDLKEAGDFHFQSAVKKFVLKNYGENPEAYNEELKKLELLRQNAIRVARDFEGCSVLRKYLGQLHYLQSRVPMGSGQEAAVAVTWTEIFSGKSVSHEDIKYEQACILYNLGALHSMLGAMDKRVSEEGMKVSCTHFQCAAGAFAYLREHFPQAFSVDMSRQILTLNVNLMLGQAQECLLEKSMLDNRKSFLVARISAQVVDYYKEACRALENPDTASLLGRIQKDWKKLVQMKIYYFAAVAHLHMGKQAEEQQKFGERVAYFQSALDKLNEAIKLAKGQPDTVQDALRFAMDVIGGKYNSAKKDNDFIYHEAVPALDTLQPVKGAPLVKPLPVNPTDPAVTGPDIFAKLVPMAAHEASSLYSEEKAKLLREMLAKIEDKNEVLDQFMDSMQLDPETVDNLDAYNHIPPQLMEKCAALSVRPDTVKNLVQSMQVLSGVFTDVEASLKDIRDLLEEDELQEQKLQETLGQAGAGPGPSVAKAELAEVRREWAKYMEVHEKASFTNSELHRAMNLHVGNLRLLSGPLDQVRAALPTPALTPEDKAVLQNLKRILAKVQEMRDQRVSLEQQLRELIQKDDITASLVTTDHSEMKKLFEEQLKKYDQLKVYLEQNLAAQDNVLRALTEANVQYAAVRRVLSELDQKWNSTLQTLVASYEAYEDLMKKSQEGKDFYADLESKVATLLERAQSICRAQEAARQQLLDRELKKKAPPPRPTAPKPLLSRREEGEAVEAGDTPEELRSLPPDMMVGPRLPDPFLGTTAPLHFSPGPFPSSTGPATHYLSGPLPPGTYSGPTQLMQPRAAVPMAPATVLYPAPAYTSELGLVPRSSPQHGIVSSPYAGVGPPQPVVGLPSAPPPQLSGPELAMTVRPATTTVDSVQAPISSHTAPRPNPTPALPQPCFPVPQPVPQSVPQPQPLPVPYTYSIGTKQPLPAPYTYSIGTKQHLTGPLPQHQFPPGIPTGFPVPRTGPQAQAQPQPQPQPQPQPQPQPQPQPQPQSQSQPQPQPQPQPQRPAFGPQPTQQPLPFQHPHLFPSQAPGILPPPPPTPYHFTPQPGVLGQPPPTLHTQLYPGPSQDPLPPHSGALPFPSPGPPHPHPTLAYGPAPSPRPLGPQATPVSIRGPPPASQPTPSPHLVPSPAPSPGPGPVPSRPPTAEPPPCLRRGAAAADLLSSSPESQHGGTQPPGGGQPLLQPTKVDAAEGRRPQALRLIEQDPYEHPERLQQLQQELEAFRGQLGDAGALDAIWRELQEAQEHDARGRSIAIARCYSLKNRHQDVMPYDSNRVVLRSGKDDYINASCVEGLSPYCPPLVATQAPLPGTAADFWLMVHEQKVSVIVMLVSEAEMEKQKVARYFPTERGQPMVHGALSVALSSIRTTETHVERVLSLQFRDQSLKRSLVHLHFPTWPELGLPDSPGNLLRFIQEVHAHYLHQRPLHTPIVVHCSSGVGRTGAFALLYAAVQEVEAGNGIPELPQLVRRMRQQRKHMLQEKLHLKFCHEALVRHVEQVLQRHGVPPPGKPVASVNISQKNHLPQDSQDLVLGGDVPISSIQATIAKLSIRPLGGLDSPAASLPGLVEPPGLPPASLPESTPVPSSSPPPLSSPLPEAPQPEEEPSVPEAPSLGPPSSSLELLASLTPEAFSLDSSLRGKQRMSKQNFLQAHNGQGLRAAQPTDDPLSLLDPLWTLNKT

Molecular target: T1, Bicaudal-D1 (BICD1), endogenous (mouse (endogenous in N2A-FLAG-TrkB cells and ES-MNs)) (UniProt Q8BR07)
T1 sequence: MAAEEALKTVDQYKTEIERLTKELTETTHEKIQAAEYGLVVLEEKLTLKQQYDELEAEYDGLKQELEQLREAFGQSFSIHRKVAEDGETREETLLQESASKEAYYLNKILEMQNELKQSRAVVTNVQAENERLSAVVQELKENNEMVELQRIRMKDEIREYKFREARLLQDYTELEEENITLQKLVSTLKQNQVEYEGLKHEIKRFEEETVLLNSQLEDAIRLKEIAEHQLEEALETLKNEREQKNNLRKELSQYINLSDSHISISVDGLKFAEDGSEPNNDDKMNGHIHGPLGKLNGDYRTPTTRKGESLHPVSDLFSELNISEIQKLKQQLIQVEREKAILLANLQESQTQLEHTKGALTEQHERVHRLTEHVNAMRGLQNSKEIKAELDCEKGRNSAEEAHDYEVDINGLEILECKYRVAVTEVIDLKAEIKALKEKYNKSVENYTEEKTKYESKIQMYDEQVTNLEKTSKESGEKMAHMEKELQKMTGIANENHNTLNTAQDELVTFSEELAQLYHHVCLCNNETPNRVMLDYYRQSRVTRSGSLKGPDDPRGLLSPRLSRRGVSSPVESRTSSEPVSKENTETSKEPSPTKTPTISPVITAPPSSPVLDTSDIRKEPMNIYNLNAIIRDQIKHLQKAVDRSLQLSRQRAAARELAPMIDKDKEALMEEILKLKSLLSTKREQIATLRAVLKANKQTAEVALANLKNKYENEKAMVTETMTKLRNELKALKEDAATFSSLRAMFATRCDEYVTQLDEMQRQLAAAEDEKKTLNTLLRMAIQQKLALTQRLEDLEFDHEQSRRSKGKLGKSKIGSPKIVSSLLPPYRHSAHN
Assay: co-IP; anti-BICD1 polyclonal antibody or rabbit IgG on Protein-G magnetic beads; N2A-FLAG-TrkB lysate in 0.4% NP-40 lysis buffer, 2 h at 4°C; blots for PTPN23 and BICD1

- binding: binds
Substance: protein tyrosine phosphatase, non-receptor type 23 (PTPN23), endogenous (from UniProt Q6PB44 1-1692)
